Assay results published in PMC12159841.
Results are given in words; binding and its absence hold for the method and conditions named. Binding seen in cells or lysates may run through a third protein. These calls come from enrichment with a bait or labelling near it, and not all partners need be listed.

Biological target: T1, Tissue kallikrein-related peptidase 8 (KLK8) (UniProt Q61955)
T1 sequence: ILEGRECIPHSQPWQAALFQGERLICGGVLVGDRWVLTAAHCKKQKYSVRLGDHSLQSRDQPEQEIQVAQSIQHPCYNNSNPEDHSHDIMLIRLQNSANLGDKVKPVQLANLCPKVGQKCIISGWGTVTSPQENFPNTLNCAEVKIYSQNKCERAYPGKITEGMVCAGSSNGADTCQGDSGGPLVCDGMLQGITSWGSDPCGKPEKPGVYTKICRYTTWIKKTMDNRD
Assay: affinity purification with mass spectrometry; proteins from Ad-KLK8-treated BV2 cells immunoprecipitated with anti-KLK8 antibody, SDS-PAGE, in-gel trypsin digestion, UPLC-MS/MS; searched against the Rattus database (UniProtKB/Swiss-Prot)

binding: binds
B1: CD44 (receptor, UniProt P15379 23-778)
chain: QIDLNVTCRYAGVFHVEKNGRYSISRTEAADLCQAFNSTLPTMDQMKLALSKGFETCRYGFIEGNVVIPRIHPNAICAANHTGVYILVTSNTSHYDTYCFNASAPPEEDCTSVTDLPNSFDGPVTITIVNRDGTRYSKKGEYRTHQEDIDASNIIDDDVSSGSTIEKSTPEGYILHTYLPTEQPTGDQDDSFFIRSTLATIASTVHSKSHAAAQKQNNWIWSWFGNSQSTTQTQEPTTSATTALMTTPETPPKRQEAQNWFSWLFQPSESKSHLHTTTKMPGTESNTNPTGWEPNEENEDETDTYPSFSGSGIDDDEDFISSTIATTPRVSARTEDNQDWTQWKPNHSNPEVLLQTTTRMADIDRISTSAHGENWTPEPQPPFNNHEYQDEEETPHATSTTPNSTAEAAATQQETWFQNGWQGKNPPTPSEDSHVTEGTTASAHNNHPSQRITTQSQEDVSWTDFFDPISHPMGQGHQTESKDTDSSHSTTLQPTAAPNTHLVEDLNRTGPLSVTTPQSHSQNFSTLHGEPEEDENYPTTSILPSSTKSSAKDARRGGSLPTDTTTSVEGYTFQYPDTMENGTLFPVTPAKTEVFGETEVTLATDSNVNVDGSLPGDRDSSKDSRGSSRTVTHGSELAGHSSANQDSGVTTTSGPMRRPQIPEWLIILASLLALALILAVCIAVNSRRRCGQKKKLVINGGNGTVEDRKPSELNGEASKSQEMVHLVNKEPSETPDQCMTADETRNLQSVDMKIGV
